This data set relates to iNOS mRNA. In words: iNOS mRNA expression in penis of castrated rat model by RT-PCR. The data set is classed as in vivo. Conditions: 3 months. Here is the method: Male Wistar rats(300-350 g)(n=24) randomly divide into 4 Groups; Group A for control; Group B for castrated and administration normal saline; Group C for castrated and oral administration Icariin […]; Group D for castrated and oral administration Icariin (5 mg/kg) for 3 months. After observe mating behavior, the animal was killed, the penis was excised rapidly, and cut into four parts. One of them used for immuohistochemical stain, the others was socked into RNAlater and stored in −70 condition. nNOS, eNOS, iNOS mRNA were semi-quantified by RT-PCR, β-actin as a controls. Specificity of RT-PCR products was confirmed by sequencing procedure, with-assay and between-assay variation was carried out respectively.

Consider `COc1ccc(-c2oc3c(CC=C(C)C)c(O[C@@H]4O[C@H](CO)[C@@H](O)[C@H](O)[C@H]4O)cc(O)c3c(=O)c2O[C@@H]2O[C@@H](C)[C@H](O)[C@@H](O)[C@H]2O)cc1` [Icariin, icariin], for which the “Mean conc./area (β-actin)” value came to 34.56 (Group C, oral Icariin (mg/kg)) and 31.36 (Group D, oral Icariin 5 mg/kg).

The values are drawn from patent publication US6916845B2, “Method for prevention and treatment of male and female sexual dysfunction” (priority 1999, dated 2005).
